Reference: PubChem BioAssay AID190 (DTP/NCI, 2004)
The list does not hold the whole screen: it is rich in T/C values a quarter to a half above the control, in often repeated tests (any T/C) and in doses without a T/C. Further doses and runs are listed elsewhere. T/C is the treated group as % of the vehicle group. Some entries give survivors of the animals treated and no T/C: the source files T/C as zero there, which appears to mark a toxic dose or a test without result, not a measured value. Some survivor counts are full or nearly so, which does not show that the dose was tolerated: the source hardly ever lists a survival T/C far under the control, and the zero likely stands for such cases as well. Counts of survivors are from the toxicity check (mostly the fifth day) where no day follows; animals may have died later. Schedules are NCI's codes, read here as Q, the interval in days (D) or hours (H), X, the number of doses. Some doses were run more than once; the values are given in rising order. Where survival is the endpoint, this PubChem deposit counts one and a half times the control or more as active, and values a quarter to a half above the control carry no call in these data; other NCI protocols may use other cut-offs. Some T/C values carry the count of animals alive at the toxicity check (mostly the fifth day); where none is given, no animal had died by that day. Marks such as (2×) say how often a value occurs here. Numbered stars: 1 amine (or outer) side, 2 acyl side, 3 side chain; on linkers, the order of the positions; unused ones are H or OH. Bridge positions count the residues as written; N and C are the ends. Square brackets hold non-standard residues; d marks the D form. Peptide text beside a SMILES is read from it. I, II: the chains in the order shown. Actinocin(9to1) = Cc1c2oc3c(C)ccc(C(=O)[*:1])c3nc-2c(C(=O)[*:2])c(N)c1=O; aThr = C[C@H](O)[C@H](N)C(=O)O; NMeV = CN[C@H](C(=O)O)C(C)C; Sar = CNCC(=O)O

Tested on: AKR/Lw mice, AKR lymphoma ip, median survival T/C
Test: NCI In Vivo Anticancer Drug Screen. Data for tumor model Lymphoma AKR (Transplanted) (intraperitoneal) in AKR/Lw mice
Details: T/C endpoint: median survival time, higher T/C = longer survival
Method: The antitumor activity of compounds was measured in mice bearing transplantable tumors. Survival or tumor size were measured and the results are expressed as the measurement made in the treated group (T) divided by the measurement made in the vehicle treated control group (C). The tumor model used in this assay is Lymphoma AKR (Transplanted) (intraperitoneal) in AKR/Lw mice

[1] = dose: 6.25 mg/kg/injection, schedule: Q07DX003 (ip), vehicle: saline
[2] = dose: 15.0 mg/kg/injection, schedule: Q07DX003 (ip), vehicle: Klucel (hydroxypropylcellulose) (HPC)
[3] = dose: 20.0 mg/kg/injection, schedule: Q07DX003 (ip), vehicle: Klucel (hydroxypropylcellulose) (HPC)
[4] = dose: 25.0 mg/kg/injection, schedule: Q07DX003 (ip), vehicle: Klucel (hydroxypropylcellulose) (HPC)
[5] = dose: 30.0 mg/kg/injection, schedule: Q07DX003 (ip), vehicle: Klucel (hydroxypropylcellulose) (HPC)
[6] = dose: 50.0 mg/kg/injection, schedule: Q01DX001 (ip), vehicle: Klucel (hydroxypropylcellulose) (HPC)
[7] = dose: 50.0 mg/kg/injection, schedule: Q01DX001 (ip), vehicle: saline
[8] = dose: 75.0 mg/kg/injection, schedule: Q01DX001 (ip), vehicle: Klucel (hydroxypropylcellulose) (HPC)
[9] = dose: 100.0 mg/kg/injection, schedule: Q01DX001 (ip), vehicle: Klucel (hydroxypropylcellulose) (HPC)
[10] = dose: 100.0 mg/kg/injection, schedule: Q01DX001 (ip), vehicle: saline
[11] = dose: 100.0 mg/kg/injection, schedule: Q04DX003 (ip), vehicle: Klucel (hydroxypropylcellulose) (HPC)
[12] = dose: 1.5 mg/kg/injection, schedule: Q04DX008 (ip), vehicle: Klucel (hydroxypropylcellulose) (HPC)

O=NN(CCCl)C(=O)NC1CCCCC1
T/C (dose: 5.0 mg/kg/injection, schedule: Q07DX003 (ip), vehicle: Klucel (hydroxypropylcellulose) (HPC)): 92, 97, 105, 113, 115, 120 % of control
T/C [1]: 131 % of control
survivor count [1]: 4 of 10
T/C (dose: 10.0 mg/kg/injection, schedule: Q01DX001 (ip), vehicle: Klucel (hydroxypropylcellulose) (HPC), evaluated on day 5): 117 and 133 % of control
T/C (dose: 10.0 mg/kg/injection, schedule: Q01DX001 (ip), vehicle: Klucel (hydroxypropylcellulose) (HPC), evaluated on day 60): 117 and 133 % of control
T/C (dose: 10.0 mg/kg/injection, schedule: Q07DX003 (ip), vehicle: Klucel (hydroxypropylcellulose) (HPC)): 87, 102, 105, 107, 115, 117 % of control
T/C (dose: 14.0 mg/kg/injection, schedule: Q01DX001 (ip), vehicle: Klucel (hydroxypropylcellulose) (HPC), evaluated on day 5): 138 % of control
T/C (dose: 14.0 mg/kg/injection, schedule: Q01DX001 (ip), vehicle: Klucel (hydroxypropylcellulose) (HPC), evaluated on day 60): 138 % of control
survivor count (dose: 15.0 mg/kg/injection, schedule: Q04DX004 (ip), vehicle: Klucel (hydroxypropylcellulose) (HPC)): 10 of 10
T/C [2]: 95, 100, 110, 113, 152 % of control
survivor count [2]: 10 of 10
T/C (dose: 20.0 mg/kg/injection, schedule: Q01DX001 (ip), vehicle: Klucel (hydroxypropylcellulose) (HPC), evaluated on day 5): 110 and 113 % of control
T/C (dose: 20.0 mg/kg/injection, schedule: Q01DX001 (ip), vehicle: Klucel (hydroxypropylcellulose) (HPC), evaluated on day 60): 96, 103, 108, 109 [7 of 10 alive], 110, 112, 113, 120 % of control
survivor count (dose: 20.0 mg/kg/injection, schedule: Q04DX004 (ip), vehicle: Klucel (hydroxypropylcellulose) (HPC)): 10 of 10
T/C [3]: 102 [9 of 10 alive], 107 (2×), 113, 118 % of control
survivor count [3]: 10 of 10
T/C (dose: 25.0 mg/kg/injection, schedule: Q01DX001 (ip), vehicle: saline): 128 % of control
T/C [4]: 100, 105, 115, 117, 126 % of control
survivor count [4]: 10 of 10
T/C (dose: 25.0 mg/kg/injection, schedule: Q07DX003 (ip), vehicle: saline): 128 % of control
T/C (dose: 27.0 mg/kg/injection, schedule: Q01DX001 (ip), vehicle: Klucel (hydroxypropylcellulose) (HPC), evaluated on day 5): 140 % of control
T/C (dose: 27.0 mg/kg/injection, schedule: Q01DX001 (ip), vehicle: Klucel (hydroxypropylcellulose) (HPC), evaluated on day 60): 140 % of control
T/C (dose: 30.0 mg/kg/injection, schedule: Q01DX001 (ip), vehicle: Klucel (hydroxypropylcellulose) (HPC), evaluated on day 5): 133 % of control
T/C (dose: 30.0 mg/kg/injection, schedule: Q01DX001 (ip), vehicle: Klucel (hydroxypropylcellulose) (HPC), evaluated on day 60): 100 [7 of 10 alive], 112 [9 of 10 alive], 116, 120, 125, 133 % of control
survivor count (dose: 30.0 mg/kg/injection, schedule: Q01DX001 (ip), vehicle: Klucel (hydroxypropylcellulose) (HPC)): 10 of 10
T/C [5]: 100, 107, 110, 115, 144 % of control
survivor count [5]: 10 of 10
T/C (dose: 40.0 mg/kg/injection, schedule: Q01DX001 (ip), vehicle: Klucel (hydroxypropylcellulose) (HPC), evaluated on day 5): 78 % of control
T/C (dose: 40.0 mg/kg/injection, schedule: Q01DX001 (ip), vehicle: Klucel (hydroxypropylcellulose) (HPC), evaluated on day 60): 90, 108, 112, 125, 141 % of control
survivor count (dose: 40.0 mg/kg/injection, schedule: Q01DX001 (ip), vehicle: Klucel (hydroxypropylcellulose) (HPC)): 6 of 10 and 7 of 10
survivor count (dose: 40.0 mg/kg/injection, schedule: Q04DX004 (ip), vehicle: Klucel (hydroxypropylcellulose) (HPC)): 10 of 10
T/C [6]: 90 [9 of 10 alive], 96 [9 of 10 alive], 104, 120, 141 % of control
survivor count [6]: 6 of 10
T/C [7]: 128 % of control
survivor count [7]: 9 of 10
T/C [8]: 108, 116 [8 of 10 alive], 120 % of control
survivor count [8]: 4 of 10, 7 of 10, 9 of 10
T/C [9]: 108, 125, 133 % of control
survivor count [9]: 2 of 10, 4 of 10, 6 of 10
T/C [10]: 125 [9 of 10 alive] and 140 % of control [8 of 10 alive]
survivor count [10]: 7 of 10
survivor count (dose: 200.0 mg/kg/injection, schedule: Q01DX001 (ip), vehicle: saline with Tween-80): 8 of 10

CC(=O)CCN1C(=O)c2ccccc2C1=O
survivor count [11]: 9 of 10

CC(C)OC(=O)Oc1cccc2c1C(=O)c1ccccc1C2=O
T/C (dose: 400.0 mg/kg/injection, schedule: Q01DX001 (ip), vehicle: Klucel (hydroxypropylcellulose) (HPC)): 128 % of control

Cc1c2oc3c(C)ccc(C(=O)N[C@@H]4C(=O)N[C@H](C(C)C)C(=O)N5CCC[C@H]5C(=O)N(C)CC(=O)N(C)[C@@H](C(C)C)C(=O)O[C@H]4C)c3nc-2c(C(=O)N[C@@H]2C(=O)N[C@H](C(C)C)C(=O)N3CCC[C@H]3C(=O)N(C)CC(=O)N(C)[C@@H](C(C)C)C(=O)O[C@H]2C)c(N)c1=O (I: [aThr][dV]P[Sar][NMeV] / II: [aThr][dV]P[Sar][NMeV]; ester I:1-I:C, II:1-II:C; linker I:N-II:N via Actinocin(9to1))
survivor count (dose: 0.3 mg/kg/injection, schedule: Q01DX001 (ip), vehicle: saline): 10 of 10
T/C (dose: 20.0 micrograms/kg/injection, schedule: Q01DX010 (ip), vehicle: saline): 129 % of control

CCn1c(O)c(C=N)c(=O)[nH]c1=O
survivor count [11]: 10 of 10

N[C@@H](Cc1ccc(N(CCCl)CCCl)cc1)C(=O)O
T/C [12]: 134 % of control
survivor count [12]: 10 of 10
T/C (dose: 2.5 mg/kg/injection, schedule: Q01DX001 (ip), vehicle: Klucel (hydroxypropylcellulose) (HPC)): 130 % of control
survivor count (dose: 2.5 mg/kg/injection, schedule: Q04DX008 (ip), vehicle: Klucel (hydroxypropylcellulose) (HPC)): 9 of 10
survivor count (dose: 3.9 mg/kg/injection, schedule: Q04DX008 (ip), vehicle: Klucel (hydroxypropylcellulose) (HPC)): 10 of 10
T/C (dose: 4.0 mg/kg/injection, schedule: Q01DX001 (ip), vehicle: Klucel (hydroxypropylcellulose) (HPC)): 127 and 141 % of control
survivor count (dose: 6.0 mg/kg/injection, schedule: Q04DX008 (ip), vehicle: Klucel (hydroxypropylcellulose) (HPC)): 10 of 10
survivor count (dose: 7.7 mg/kg/injection, schedule: Q04DX004 (ip), vehicle: Klucel (hydroxypropylcellulose) (HPC)): 10 of 10
survivor count (dose: 7.7 mg/kg/injection, schedule: Q04DX004 (ip), vehicle: saline): 10 of 10
T/C (dose: 9.0 mg/kg/injection, schedule: Q01DX001 (ip), vehicle: Klucel (hydroxypropylcellulose) (HPC)): 125 % of control
survivor count (dose: 10.0 mg/kg/injection, schedule: Q04DX008 (ip), vehicle: Klucel (hydroxypropylcellulose) (HPC)): 10 of 10
survivor count (dose: 12.0 mg/kg/injection, schedule: Q01DX001 (ip), vehicle: Klucel (hydroxypropylcellulose) (HPC)): 7 of 10
survivor count (dose: 20.0 mg/kg/injection, schedule: Q04DX008 (ip), vehicle: Klucel (hydroxypropylcellulose) (HPC)): 8 of 10

NC(Cc1ccc([N+](=O)[O-])cc1)C(=O)O (centres undefined)
survivor count (dose: 400.0 mg/kg/injection, schedule: Q01DX001 (ip), vehicle: saline): 10 of 10

O=C(O)c1ccc(SSc2ccc(C(=O)O)cn2)nc1
T/C [11]: 140 % of control [8 of 10 alive]
survivor count (dose: 200.0 mg/kg/injection, schedule: Q04DX003 (ip), vehicle: Klucel (hydroxypropylcellulose) (HPC)): 10 of 10
survivor count (dose: 400.0 mg/kg/injection, schedule: Q04DX003 (ip), vehicle: Klucel (hydroxypropylcellulose) (HPC)): 10 of 10
